Experimental findings from US20220275095A1 are described below.

Results are given in words; binding and its absence hold for the method and conditions named. Some binding calls cover weakened binding; strength is not graded here.

The target in experiment [1] is T1, hFzd8 (human) (UniProt Q9H461).
T1 sequence (looked up): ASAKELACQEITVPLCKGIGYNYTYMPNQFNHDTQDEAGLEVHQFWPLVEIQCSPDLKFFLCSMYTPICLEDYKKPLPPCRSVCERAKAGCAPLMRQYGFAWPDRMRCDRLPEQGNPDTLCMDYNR
The experiment in a line: phage ELISA. Background: ELISA stands for enzyme-linked immunosorbent assay.

In experiment [2] the target is Fzd2 hinge protein (Fzd2 protein with the hinge region) (Homo sapiens (Human)) (UniProt Q14332). The experiment in a line: BLI (Octet Red 96), biotinylated Fzd2 hinge protein on streptavidin biosensor.

B1: 027S-E5 (Fab, V domains shown)
VH: QVQLEQSGAEVKKPGASVKVSCKASGGTFSSYAISWVRQAPGQGLEWMGMINPSGGSTTYAQKFQGRVTMTRDTSTSTVYMELSSLRSEDTAVYYCARQAGLHCSSTSCYLGNWFDPWGQGTLVTVSS
VL: DIQMTQSPSSLSASVGDRVTITCRASQGITKSLAWYQQKPGKAPKLLIYAASNLATGVPSRFSGSGSGTDFTLTISSLQPEDFATYYCQQYNTFPITFGQGTRLEIKR
On to B1, for which, in experiment [1], the binding entry was “binds”.

B2: 031S-B02 Fab (Fab, V domains shown)
VH: EVQLLESGGGLVQPGGSLRLSCAASGFTFSSYWMSWVRQAPGKGLEWVSAIGGSGANAYYADSVKGRFTISRDNSKNTLYLQMNSLRAEDTAVYYCVRDTNWAFDLWGQGTMVTVSS
VL: EIVMTQSPATLSVSPGERATLSCRASQSVSGSYLAWYQQKPGQAPRLLIYGASTRATGIPARFSGSGSGTEFTLTISSLQSEDFAVYYCQQYGSSPLTFGQGTKVEIK
Turning to B2, in experiment [2], the binding result is reported as “binds”.
